Assay results taken from PMC10500059, “Allosteric activation of RhlB by RNase E induces partial duplex opening in substrate RNA” (Frontiers in Molecular Biosciences, 2023).

Key:
RhlB (Escherichia coli) [1] = biological target: T1, RhlB (Escherichia coli) (UniProt P0A8J8); assay: NMR (13C HSQC titration); details: no ATP, uniform intensity loss, no shift changes; NMR: 150 mM KCl, 25 mM Tris/HCl, 5 mM DTT, 4.5 mM MgCl2, pH 8.3, 288 K, 100 µM RNA; recombinant protein; label: none (1H titration), 21 nt strand 13C,15N for HSQC; letters put together from the description
T1 sequence (looked up, limits assumed): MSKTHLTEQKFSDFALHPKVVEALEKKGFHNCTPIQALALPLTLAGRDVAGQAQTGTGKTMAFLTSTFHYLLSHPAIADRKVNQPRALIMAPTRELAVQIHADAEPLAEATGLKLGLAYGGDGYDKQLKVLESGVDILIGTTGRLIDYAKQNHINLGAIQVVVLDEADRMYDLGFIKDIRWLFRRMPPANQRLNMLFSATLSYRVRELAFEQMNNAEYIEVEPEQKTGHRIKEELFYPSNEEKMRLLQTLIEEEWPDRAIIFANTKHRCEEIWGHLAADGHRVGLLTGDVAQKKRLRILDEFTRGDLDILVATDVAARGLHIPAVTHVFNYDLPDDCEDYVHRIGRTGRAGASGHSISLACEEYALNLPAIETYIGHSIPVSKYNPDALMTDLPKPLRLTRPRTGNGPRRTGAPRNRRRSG

RhlB + RNase E (694-790) [2] = assay: NMR (13C HSQC titration); details: no ATP, nt U16-U21 of 21 nt strand become unpaired; NMR: 150 mM KCl, 25 mM Tris/HCl, 5 mM DTT, 4.5 mM MgCl2, pH 8.3, 288 K, 100 µM RNA; recombinant protein; label: none (1H titration), 21 nt strand 13C,15N for HSQC; letters put together from the description
[3] = biological target: T2, RNase E (628-843) (Escherichia coli) (UniProt P21513); assay: NMR (1H imino titration); details: 4.5 mM Mg2+; NMR: 150 mM KCl, 25 mM Tris/HCl, 5 mM DTT, 4.5 mM MgCl2, pH 8.3, 288 K, 100 µM RNA; recombinant protein; residues 628-843; protein details: N-terminal 6xHis-TEV, tag cleaved; label: none (1H titration), 21 nt strand 13C,15N for HSQC; letters put together from the description
T2 sequence (looked up): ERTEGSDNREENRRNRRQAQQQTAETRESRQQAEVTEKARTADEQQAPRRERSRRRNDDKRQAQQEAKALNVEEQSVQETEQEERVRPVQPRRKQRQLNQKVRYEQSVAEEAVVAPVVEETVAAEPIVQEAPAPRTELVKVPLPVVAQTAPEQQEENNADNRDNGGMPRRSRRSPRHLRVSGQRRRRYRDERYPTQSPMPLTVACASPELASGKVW

[4] = biological target: T3, RNase E (694-790) (Escherichia coli) (UniProt P21513); assay: NMR (1H imino titration); details: 4.5 mM Mg2+; NMR: 150 mM KCl, 25 mM Tris/HCl, 5 mM DTT, 4.5 mM MgCl2, pH 8.3, 288 K, 100 µM RNA; recombinant protein; residues 694-790; label: none (1H titration), 21 nt strand 13C,15N for HSQC; letters put together from the description
T3 sequence (looked up): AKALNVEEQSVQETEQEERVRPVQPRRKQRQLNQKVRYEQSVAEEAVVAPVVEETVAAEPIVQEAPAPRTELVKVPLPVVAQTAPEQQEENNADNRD

RhlB (Escherichia coli) [5] = biological target: T1, RhlB (Escherichia coli); assay: NMR (1H imino titration); details: no ATP, 4.5 mM Mg2+; NMR: 150 mM KCl, 25 mM Tris/HCl, 5 mM DTT, 4.5 mM MgCl2, pH 8.3, 288 K, 100 µM RNA; recombinant protein; label: none (1H titration), 21 nt strand 13C,15N for HSQC; letters put together from the description
RhlB + RNase E (628-843) = assay: NMR (1H imino titration); details: no ATP, 4.5 mM Mg2+; NMR: 150 mM KCl, 25 mM Tris/HCl, 5 mM DTT, 4.5 mM MgCl2, pH 8.3, 288 K, 100 µM RNA; recombinant protein; label: none (1H titration), 21 nt strand 13C,15N for HSQC; letters put together from the description
RhlB + RNase E (694-790) [6] = assay: NMR (1H imino titration); details: no ATP, 4.5 mM Mg2+; NMR: 150 mM KCl, 25 mM Tris/HCl, 5 mM DTT, 4.5 mM MgCl2, pH 8.3, 288 K, 100 µM RNA; recombinant protein; label: none (1H titration), 21 nt strand 13C,15N for HSQC; letters put together from the description

For “UAGUAACUAAAACAUUAAAUU / AAUUUAAUGUUUU [5'-OV duplex]”, the binding result (RhlB (Escherichia coli) [1]) was “binds”, the binding result (RhlB + RNase E (694-790) [2]) was “binds” and the Kd [3] was 163 µM. The binding result [4] was “no binding”, the Kd (RhlB (Escherichia coli) [5]) was 46.6 µM and the Kd (RhlB + RNase E (628-843)) was 5.1 µM. The Kd (RhlB + RNase E (694-790) [6]) was 14.5 µM.

For at least one entry, the source does not settle the construct or the ends of the probe. For some of these results: Negatives hold for the conditions tested. For some of these results: Protein sequences can lack the tags named with them.
